# Results are given in words; binding and its absence hold for the method and conditions named.
# By UniProt entry, the sequences of proteins in these tests, tags left out. Where a name states a change or a piece, a line headed by the entry shows the natural chain unless it says otherwise.
# UniProt Q06632: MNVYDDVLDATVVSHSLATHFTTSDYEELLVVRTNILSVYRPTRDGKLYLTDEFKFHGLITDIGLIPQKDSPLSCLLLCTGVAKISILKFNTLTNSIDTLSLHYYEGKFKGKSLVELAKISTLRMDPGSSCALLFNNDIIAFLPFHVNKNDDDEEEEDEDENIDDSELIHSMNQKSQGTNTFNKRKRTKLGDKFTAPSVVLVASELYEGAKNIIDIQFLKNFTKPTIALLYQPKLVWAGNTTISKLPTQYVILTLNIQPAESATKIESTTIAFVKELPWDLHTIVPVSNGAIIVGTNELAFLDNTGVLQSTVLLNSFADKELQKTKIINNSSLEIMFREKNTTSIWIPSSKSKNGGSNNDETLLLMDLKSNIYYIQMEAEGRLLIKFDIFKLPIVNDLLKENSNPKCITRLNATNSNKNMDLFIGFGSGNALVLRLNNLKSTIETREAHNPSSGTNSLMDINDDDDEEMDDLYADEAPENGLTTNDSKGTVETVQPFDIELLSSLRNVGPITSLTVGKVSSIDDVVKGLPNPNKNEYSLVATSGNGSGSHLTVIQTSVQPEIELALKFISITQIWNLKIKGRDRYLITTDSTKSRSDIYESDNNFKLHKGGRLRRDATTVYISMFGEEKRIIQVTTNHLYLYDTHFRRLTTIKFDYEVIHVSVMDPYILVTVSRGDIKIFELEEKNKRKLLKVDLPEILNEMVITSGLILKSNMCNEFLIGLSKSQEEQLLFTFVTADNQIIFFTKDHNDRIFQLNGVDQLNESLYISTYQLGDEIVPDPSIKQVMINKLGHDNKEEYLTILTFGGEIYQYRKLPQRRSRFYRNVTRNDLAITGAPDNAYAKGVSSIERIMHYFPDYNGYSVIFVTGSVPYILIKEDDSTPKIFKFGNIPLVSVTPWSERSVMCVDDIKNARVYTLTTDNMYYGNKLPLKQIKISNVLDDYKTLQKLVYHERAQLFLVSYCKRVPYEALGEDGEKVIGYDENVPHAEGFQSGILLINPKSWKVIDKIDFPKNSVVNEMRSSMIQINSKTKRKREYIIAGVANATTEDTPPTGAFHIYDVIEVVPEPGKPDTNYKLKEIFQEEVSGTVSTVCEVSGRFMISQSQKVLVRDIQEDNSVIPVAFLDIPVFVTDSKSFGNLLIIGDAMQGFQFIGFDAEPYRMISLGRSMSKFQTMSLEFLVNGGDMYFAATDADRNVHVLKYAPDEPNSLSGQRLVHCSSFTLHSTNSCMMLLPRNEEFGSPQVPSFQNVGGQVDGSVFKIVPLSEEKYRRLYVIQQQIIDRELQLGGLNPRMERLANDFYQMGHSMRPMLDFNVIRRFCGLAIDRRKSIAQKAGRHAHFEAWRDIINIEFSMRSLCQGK
# B1: CF IB (6H-Hrp1) (protein, UniProt Q99383 1-534)
# chain: MSSDEEDFNDIYGDDKPTTTEEVKKEEEQNKAGSGTSQLDQLAALQALSSSLNKLNNPNSNNSSSNNSNQDTSSSKQDGTANDKEGSNEDTKNEKKQESATSANANANASSAGPSGLPWEQLQQTMSQFQQPSSQSPPQQQVTQTKEERSKADLSKESCKMFIGGLNWDTTEDNLREYFGKYGTVTDLKIMKDPATGRSRGFGFLSFEKPSSVDEVVKTQHILDGKVIDPKRAIPRDEQDKTGKIFVGGIGPDVRPKEFEEFFSQWGTIIDAQLMLDKDTGQSRGFGFVTYDSADAVDRVCQNKFIDFKDRKIEIKRAEPRHMQQKSSNNGGNNGGNNMNRRGGNFGNQGDFNQMYQNPMMGGYNPMMNPQAMTDYYQKMQEYYQQMQKQTGMDYTQMYQQQMQQMAMMMPGFAMPPNAMTLNQPQQDSNATQGSPAPSDSDNNKSNDVQTIGNTSNTDSGSPPLNLPNGPKGPSQYNDDHNSGYGYNRDRGDRDRNDRDRDYNHRSGGNHRRNGRGGRGGYNRRNNGYHPYNR
# Biological target: CPF_(core): Cft1-Pfs2_(-3C-SII)-Yth1_(-3C-8H)-Fip1-Pap1-Cft2-Ysh1-Mpe1 (S. cerevisiae) (UniProt Q06632)
# Test: pull-down; Strep-tagged bait proteins and complexes (100 μL at 1.5 μM) immobilised on Streptactin beads; prey CF IA, CF IB, Rna14-Rna15 or Pcf11-Clp1 (20 μL at 4.0 μM) bound 60 min at 4°C; 10 mM HEPES pH 7.9, 150 mM NaCl, 0.5 mM Mg(OAc)2, 0.05% Tween-20; SDS-PAGE, InstantBlue; both purified
binder,measurement,value
B1,binding,no binding (tested: 20 μL of prey at 4.0 μM added)
